The whole screen tested about 390,000 compounds, of which about 610 (0.16%) were called active. The shares of active, inactive and inconclusive entries below differ from those in the screen. Calls come from the whole dose curve; as a rule, active = well fitted inhibition curve with a large enough effect; inconclusive = small, poorly fitted or top-dose-only effect, or effect the other way, or another doubt; inactive = no such curve, though single readings can be large or run the other way. A potency beside an inconclusive call is a rough fit, not a confirmed value.
Assay: Nrf2 qHTS screen for inhibitors: counterscreen for cytotoxicity
Settings: A549 ARE-Fluc cells, CellTiter-Fluor viability, 18-24 h; activity change, negative = cytotoxicity: at 46 µM (top of the series)
Outline: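 Cytotoxicity counterscreen: CellTiter-Fluor fluorescence was measured in A549 ARE_Fluc cells after 18-24 h of compound exposure in a concentration series. The subsequent BugLite luminescent read reports ARE-luciferase activity.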
With `Cc1ccc2c(c1)C(c1ccc(F)cc1)N(C(=O)c1ccc(S(=O)(=O)N3CCCCC3)cc1)CC(=O)N2` (stereo unspecified) the “activity change, negative = cytotoxicity” value was inactive: 1.45%. In the case of `CCCCn1nc(NS(=O)(=O)c2cccc3nonc23)c2cc3cccc(C)c3nc21`, the Potency was inconclusive: 25.9 µM [falling, partial curve, poor fit]. In the case of `CCC(=O)N1CCc2cc(Br)cc(S(=O)(=O)CCC(=O)N3CCN(c4cccc(C)c4)C(C)C3)c21` (stereo unspecified), the Potency was inconclusive: 16.4 µM [falling, partial curve, poor fit]. In the case of `C=CCN1C(=O)C(Cc2ccc(F)cc2)S/C1=N/N=C/c1cccs1` (stereo unspecified), the Potency was inconclusive: 10.3 µM [activator, partial curve, poor fit]. With `COc1ccc2c(c1)c(N=NC(N)=S)c(O)n2CC(=O)c1ccccc1` the “activity change, negative = cytotoxicity” value was inactive: -11.5%. With `Cc1ccc(C(=O)Nc2ccccc2-c2ccccc2)o1` the Potency was inconclusive: 29.1 µM [activator, partial curve, poor fit]. In the case of `CCOC(=O)c1ccc(CN(Cc2ccc(F)cc2)S(=O)(=O)c2ccc(F)c(C(=O)Nc3c(C)cccc3C)c2)cc1`, the “activity change, negative = cytotoxicity” value was inactive: -0.802%. With `COc1cccc(-c2nc(CS(=O)(=O)CC(=O)N3CCN(c4cc(C)ccc4C)CC3)c(C)o2)c1` the Potency was inconclusive: 10.3 µM [falling, partial curve]. For `O=C(Nc1nc2c(F)cc(F)cc2s1)c1ccccn1`, the Potency was inconclusive: 23.1 µM [falling, partial curve, poor fit]. With `N#Cc1c(-c2ccccc2)nc(SCC(=O)Nc2ccccc2)[nH]c1=O` the “activity change, negative = cytotoxicity” value was inactive: 0.963%. For `O=C1CCc2cc(S(=O)(=O)Nc3ccccc3)ccc2N1`, the “activity change, negative = cytotoxicity” value was inactive: -6.55%. For `Cc1oc(-c2cccc(Cl)c2)nc1CN1CCCC(C(=O)NCCCN2CCOCC2)C1` (stereo unspecified), the Potency was inconclusive: 8.2 µM [falling, partial curve, poor fit]. With `CC(C)C[C@@H](CN1CCCC1CN1C(=S)NC[C@@H]1Cc1ccc(O)cc1)N1C[C@H](Cc2ccc(O)cc2)N(CCc2ccccc2)C1=S` (stereo partly specified) the Potency was inconclusive: 16.4 µM [falling, partial curve, poor fit]. With `CCOC(=O)C1CCN(Cc2ccc(O)c3ncccc23)CC1` the “activity change, negative = cytotoxicity” value was inactive: -20.8%. For `Cc1cccc(NC(=O)c2nc[nH]c2C(=O)NCCCCCNC(=O)OC(C)(C)C)c1`, the Potency was inconclusive: 23.1 µM [falling, single point]. With `O=C1C(Cc2ccccc2)Nc2ncnc(N3CCCCC3)c2N1Cc1ccc(Br)cc1` (stereo unspecified) the Potency was inconclusive: 20.6 µM [falling, partial curve, poor fit]. For `CC(C)(C)c1csc(N(CCC#N)CCC#N)n1`, the Potency was inconclusive: 11.6 µM [activator, partial curve, poor fit]. For `CCN(CC)c1nc(-c2ccccc2)cc(C(F)(F)F)c1C#N`, the Potency was inconclusive: 32.6 µM [activator, partial curve, poor fit]. With `Cc1ccc(NC(=O)C(=O)NCC(c2cccnc2)N2CCN(Cc3ccccc3)CC2)cc1F` (stereo unspecified) the activity change, negative = cytotoxicity was inconclusive: -53.6% [activator]. In the case of `CCCCn1cnc2cc(NCc3ccccc3Cl)ccc21`, the Potency was inconclusive: 29.1 µM [falling, single point]. With `Cc1cccc(/C=C/c2onc(C)c2S(=O)(=O)N2CCC(C(=O)N3CCCCC3)CC2)c1` the Potency was “inactive”. In the case of `Clc1cccc(Cl)c1Cn1cnc2c(N3CCCCCC3)ncnc21`, the Potency was inconclusive: 29.1 µM [falling, partial curve, poor fit]. For `COC(=O)c1ccccc1NC(=O)c1cc(-c2ccc(O)cc2)on1`, the “activity change, negative = cytotoxicity” value was inactive: 12.2%. In the case of `CCN(CC)CCCN=C1N[C@@H](c2cccc(F)c2)C(C(=O)OC)=C(C)N1Cc1ccccc1`, the Potency was inconclusive: 18.4 µM [falling, single point]. In the case of `O=c1[nH]c(=O)c2[nH]c(=S)[nH]c2[nH]1`, the “activity change, negative = cytotoxicity” value was inactive: 1.49%. With `COc1cc(C(=O)Nc2nc(-c3ccc(Cl)cc3)c(C)s2)ccc1OCC(=O)Nc1ccc(F)cc1` the Potency was inconclusive: 18.4 µM [falling, single point]. For `CCCS(=O)(=O)N1CCC(C(=O)NCCCN2CCC(Cc3ccccc3)CC2)CC1`, the Potency was inconclusive: 32.6 µM [activator, partial curve, poor fit]. With `COc1ccc(CNC(=S)Nc2cc(C)cc(C)c2)cc1` the Potency was inconclusive: 1.3 µM [activator, partial curve, poor fit]. With `COCc1cc(C)nc2c1C(=O)NC(c1ccc(F)cc1)N2Cc1ccccc1` (stereo unspecified) the “activity change, negative = cytotoxicity” value was inactive: 7.06%. With `CN(C)c1ccc(/C=[N+](\[O-])C2SC(=S)N(C)C2(C)C)cc1` (stereo unspecified) the Potency was inconclusive: 12.6 µM [falling, partial curve, poor fit]. For `COc1ccc2sc(-c3ccc(SC)cc3)c(-c3ccc(O)cc3)c2c1`, the Potency was inconclusive: 29.1 µM [falling, single point]. With `CCN(CC)C(C(=O)Nc1ccc(C(C)C)cc1)c1ccc2c(c1)OCO2` (stereo unspecified) the Potency was inconclusive: 29.1 µM [falling, partial curve, poor fit]. In the case of `O=C(N=Nc1c(O)[nH]c2ccc(Br)cc12)c1ccccc1-n1cccc1`, the Potency was inconclusive: 23.1 µM [falling, single point]. For `CCc1c(C)sc(NC(=O)C2CCCCC2C(=O)O)c1C(N)=O` (stereo unspecified), the “activity change, negative = cytotoxicity” value was inactive: 2.46%. For `CCOc1ccccc1-n1c(SCC(=O)Nc2ccccc2C(=O)O)nc2ccccc2c1=O`, the Potency was inconclusive: 16.4 µM [falling, partial curve, poor fit]. In the case of `COc1cc2oc3cc(C#Cc4ccc(N)cc4)ccc3c(=O)c2cc1OC`, the Potency was inconclusive: 18.4 µM [falling, partial curve, poor fit]. In the case of `CCn1cc([N+](=O)[O-])c(C(=O)N2N=C(c3cccc4ccccc34)CC2c2ccccc2O)n1` (stereo unspecified), the Potency was inconclusive: 28.2 µM [falling, single point]. For `Cc1cccc(C(=O)Nc2ccnc(-c3ccncc3)n2)c1`, the Potency was inconclusive: 6.51 µM [falling, single point]. With `COc1ccc(C(=O)Nc2cccc(-c3nnc(-c4ccco4)o3)c2)cc1` the Potency was inconclusive: 18.4 µM [falling, partial curve, poor fit]. For `O=[N+]([O-])c1ccccc1/C=C/C=N/Nc1ccc(S(=O)(=O)Nc2ccc(Cl)cc2)cc1[N+](=O)[O-]`, the Potency was inconclusive: 14.6 µM [falling, partial curve, poor fit]. With `CC1=NN(C(N)=S)C(=O)C1N=Nc1c(C)n(C)n(-c2ccccc2)c1=O` (stereo unspecified) the “activity change, negative = cytotoxicity” value was inactive: -16.9%. With `Cc1cc(Nc2cccc(Cl)c2)nc2ccc(NC(=O)c3cncc(Br)c3)cc12` the Potency was inconclusive: 16.4 µM [falling, partial curve, poor fit]. For `COc1ccc(Nc2cc(C)nc3c(C)cccc23)cc1OC`, the Potency was inconclusive: 32.6 µM [falling, partial curve, poor fit]. In the case of `NS(=O)(=O)c1ccc(N/C=C\C(=O)c2ccncc2)cc1`, the Potency was inconclusive: 20.6 µM [falling, single point]. For `C=CC[C@@H](Cc1ccc(F)cc1)C(=O)OC[C@@H]1CCCN1C(=O)[C@H](CC=C)CC(=O)N[C@H](CO)Cc1ccccc1`, the Potency was inconclusive: 11.6 µM [falling, partial curve, poor fit]. With `Cc1ccc(Cn2nnc3c(=O)[nH]c(C4CCCN(C(=O)Nc5ccc(F)cc5F)C4)nc32)cc1` (stereo unspecified) the Potency was inconclusive: 1.46 µM [falling, partial curve, poor fit]. In the case of `COc1ccccc1C1CCN(c2cc(O)ccc2[N+](=O)[O-])CC1`, the “activity change, negative = cytotoxicity” value was inactive: -8.06%. With `CCCN(CCC)CCCNC(=O)C1CCCN(Cc2nc(-c3ccc(Cl)cc3)oc2C)C1` (stereo unspecified) the Potency was inconclusive: 29.1 µM [falling, partial curve, poor fit]. For `COCCNC(=O)C1CCN(C(=O)c2cc3sccc3n2Cc2ccc(Cl)cc2)CC1`, the Potency was inconclusive: 16.4 µM [falling, partial curve, poor fit]. For `COc1cc2c(cc1OC)C1=NC(=O)CN1C(SCc1ccccc1C)=N2`, the “activity change, negative = cytotoxicity” value was inactive: -15.1%. For `COc1ccc(N(C(=O)c2snc(C(N)=O)c2N)C(C(=O)NC2CCCCC2)c2ccc(C)o2)cc1` (stereo unspecified), the Potency was inconclusive: 32.6 µM [falling, partial curve, poor fit]. For `CCc1ccc(CNC(=O)c2cc3n(n2)CCCN(Cc2ccccc2)C3=O)cc1`, the Potency was inconclusive: 25.9 µM [falling, partial curve, poor fit]. With `Cc1ccc2ccc3c(c2n1)NS(=O)(=O)c1ccc(C(F)(F)F)cc1-3` the Potency was active: 7.31 µM. For `CCC(CO)Oc1cc(NCc2ccc(C(F)(F)F)cc2)c2ncn(C(C)C)c2c1` (stereo unspecified), the Potency was inconclusive: 32.6 µM [falling, partial curve, poor fit]. In the case of `N#CCCN1CCN(Cc2cc(-c3ccccc3)ccc2O)CC1`, the Potency was inconclusive: 6.51 µM [activator, single point]. In the case of `Cc1nn(-c2ccccc2)c2nc(N)c(C#N)c(-c3ccc(C(C)(C)C)cc3)c12`, the Potency was inconclusive: 25.9 µM [falling, partial curve, poor fit]. In the case of `Cc1cc(C(C)(C)C)oc1C(=O)N(CC(=O)NC1CCCC1)c1c(C)cccc1C`, the Potency was inconclusive: 29.1 µM [falling, single point]. For `Cn1c(=O)c(C(=O)Nc2ccccn2)c(O)c2ccccc21`, the Potency was inconclusive: 29.1 µM [falling, single point]. With `CCOC(=O)c1ccc(N2C(=O)c3[nH]nc(-c4ccc(C)cc4)c3C2c2cccs2)cc1` (stereo unspecified) the Potency was inconclusive: 18.4 µM [falling, partial curve, poor fit]. With `Cc1ccccc1-c1nnc(SCC(=O)Nc2cccnc2Cl)o1` the “activity change, negative = cytotoxicity” value was inactive: 0.66%. With `COCCCNC(=O)/C(C#N)=C/c1c(N2CCN(c3cccc(Cl)c3)CC2)nc2c(C)cccn2c1=O` the Potency was inconclusive: 32.6 µM [falling, partial curve, poor fit].

Reference: PubChem BioAssay AID504648 (National Center for Advancing Translational Sciences (NCATS), 2011)
% is set by controls: 0 for no effect and ±100 for the full control effect; potency is the fitted concentration of half-maximal effect.
